Results are given in words; binding and its absence hold for the method and conditions named. For some of these results: Binding seen in cells or lysates may run through a third protein. Some binding calls cover weakened binding; strength is not graded here.

Amino acid sequences for entries named in this document (tags omitted). A change or cut given only in a name is not applied to a line headed by its entry. Residues count along the entry.
UniProt P42773: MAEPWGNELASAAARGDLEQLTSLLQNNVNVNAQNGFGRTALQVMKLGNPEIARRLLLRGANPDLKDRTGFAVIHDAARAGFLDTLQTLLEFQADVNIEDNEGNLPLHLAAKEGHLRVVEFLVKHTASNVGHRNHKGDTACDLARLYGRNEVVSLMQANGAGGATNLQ
P18-ANK1-4 (P18 residues 1-140): residues 1-140 of P42773
UniProt P42771: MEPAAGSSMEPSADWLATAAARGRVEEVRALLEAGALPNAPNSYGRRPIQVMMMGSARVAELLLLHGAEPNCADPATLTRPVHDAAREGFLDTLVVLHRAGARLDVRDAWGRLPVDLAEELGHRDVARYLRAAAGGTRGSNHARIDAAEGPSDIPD

The target of assay [1] is P18 (P18INK4C), endogenous (human (endogenous in PC-3 and WAC2)) (UniProt P42773). The experiment in a line: co-IP; reverse immunoprecipitation of endogenous P18 with a monoclonal antibody (or control IgG) from PC-3 cells, blots for MCL1 and CDK6.
Assay [2] deals with MCL1, endogenous (human (endogenous in PC-3 and WAC2)) (UniProt Q07820). The experiment in a line: co-IP; immunoprecipitation of endogenous MCL1 (or control IgG) from PC-3 and WAC2 cells, blots for P18 and BAX.
Assay [3] addresses P16 (P16INK4A residues 1-156), recombinant (human) (UniProt P42771). The experiment in a line: pull-down; in vitro pulldown of recombinant P18, P16, truncated and chimeric proteins (IP) with recombinant MCL1 (IB); both purified.
The target in assay [4] is P18-ANK1-4 (P18 residues 1-140) (human) (UniProt P42773). The description is as above.

“MCL1, endogenous (from UniProt Q07820 1-350)”: in assay [1], the binding entry is listed as “binds”.

On to “P18 (P18INK4C), endogenous (from UniProt P42773 1-168)”, for which the binding result in assay [2] is reported as “binds”.

B1: His6-MCL1 (human MCL1 residues 163-326) (domain or fragment, UniProt Q07820 163-326, looked up)
chain: TPPPAEEEEDELYRQSLEIISRYLREQATGAKDTKPMGRSGATSRKALETLRRVGDGVQRNHETAFQGMLRKLDIKNEDDVKSLSRVMIHVFSDGVTNWGRIVTLISFGAFVAKHLKTINQESCIEPLAESITDVLVRTKRDWLVKQRGWDGFVEFFHVEDLEG
notes: Named His6-MCL1 in the FPA; called rMCL1 in the pull-downs; also called His-MCL1; recombinant MCL1; source: E. coli BL21(DE3), purified (nickel column, gel filtration); not shown: His6, N-terminal, kept
Consider B1, for which the binding result in assay [3] and in assay [4] was “no binding” each time.

Source of the values: article PMC7048787, “MCL1 binding to the reverse BH3 motif of P18INK4C couples cell survival to cell proliferation” (Cell Death & Disease, 2020).
